Test results: PubChem BioAssay AID1458 (National Center for Advancing Translational Sciences (NCATS), 2008)
Among all 210,000 compounds or so, about 5,900 (2.8%) were called active. Not shown: some 5% with an inconclusive outcome. The call rests on the fitted dose curve; in most records, active means well fitted activation curve with a large enough effect; inconclusive means small, poorly fitted or top-dose-only effect; inactive means no such curve, though single readings can be large or run the other way. This is a selection; strong and weak results do not stand in their true shares. The source gives no active or inactive call for entries shown without one.

Experiment: qHTS Assay for Enhancers of SMN2 Splice Variant Expression; further: nearly all actives have a fitted effect of over 55% in size; on activity change, positive = activation: % of control where 0% means no effect
Conditions: HEK293 SMN2-luciferase splicing reporter, luminescence, 30-36 h; activity change, positive = activation: at 46.1 µM (top of the series) unless noted
Source text: NIH Chemical Genomics Center [NCGC] NIH Molecular Libraries Probe Production centers Network [MLPCN] MLPCN Grant: R03 MH084179-01 Assay Submitter (PI): Elliot Androphy NCGC Assay Overview: Spinal muscular atrophy (SMA) is caused by insufficient levels of the survival motor neuron protein SMN. The SMN locus on chromosome 5q13 contains two inverted copies of SMN called SMN1 and SMN2 which are 99% identical at the amino acid level. SMN1 is a fully functional protein and SMN2 skips exon 7 90% of the time. Skipping of exon 7 produces non-functional protein product. 10% of the SMN2 protein includes exon 7 and is fully functional. In the SMA disease state, mutations in the SMN1 locus are the cause of the disease state. Because only 10% of SMN2 is of the fully functional form, it is not sufficient to overcome the deficiency produced by the loss of the SMN1 product. A therapy that either increase the amount of SMN2 product made or to increase the inclusion of exon 7 has been proposed for the treatment of SMA. We have designed an assay to identify small molecules that can increase the amount of functional SMN2 product by appending a luciferase reporter gene after the native SMN2 gene, such that inclusion of exon 7 in the expressed product places the luciferase sequence in frame, thus generating functional luciferase enzyme.
NCGC Assay Protocol Summary: This screen utilizes a luciferase reporter gene assay, combining the promoter and splicing based cassettes in tandem with the major portion of the native SMN2 cDNA, and then transfected into HEK293 cells. Compounds that increase luciferase signal presumably enhance expression of the functional SMN2 splice variant. Passaging media contained DMEM w/ glutamax (+phenol red) 10% FCS, 1x pen/strep, 200 ug/ml hygro, 1x sodium pyruvate. Assay media contained DMEM w/ glutamax (-phenol red) 10% FCS, 1x pen strep, 1x pyruvate Sequence, Parameter, Value, Description (1) Cells, […], 2000 cells/well, 1536 TC treated White solid bottom plate (2) Time, 10-12 hours, 37C 5% CO2 (3) Compound, 23 nl, MLSMR Library (4) Control Compound, 23 nL, Sodium butyrate st 4.5mM (final) conc (5) Time, 30-36 hours, 37C 5% CO2 (6) Reagent, 3 ul, One Glo (TM) from Promega (7) Time, 5-15 minutes, Room temp (8) Detector, Viewlux: luminescent read, 60 second integration, high speed 2x binning Keywords: Spinal muscular atrophy, SMA, SMN2, high throughput screening, MLSMR, MLPCN, NIH Roadmap, qHTS and NCGC
Potency means the concentration at half of the fitted maximal effect.

| SMILES | activity change, positive = activation | Potency |
| --- | --- | --- |
| Cn1ncc(N=Cc2ccccc2)c1C(N)=O | 46.4% |  |
| COc1ccc2[nH]c(C)c(CCNC(=S)Nc3ccccc3OC)c2c1 | inactive: -30.6% |  |
| C=CCNC(=O)c1cc(-c2ccccc2O)on1 | 230% |  |
| CC(=O)NNc1ncnc2c1cnn2-c1ccc(C)cc1 | 37.6% |  |
| COc1cccc(-c2nc3sc4c(c3c(=O)[nH]2)CCCCC4)c1 |  | active: 0.891 µM |
| CCc1cc2c(Sc3nc4ccccc4s3)ncnc2s1 | -59.8% |  |
| CCOc1cccc(C(=O)NC(=S)Nc2ccc3c(c2)OCCO3)c1 | inactive: 30.3% |  |
| O=C1Nc2ncccc2OC1CCO (centres undefined) | -32.9% |  |
| CC/C(=N\NC(=O)c1c[nH]c2ccccc12)c1cccs1 |  | active: 17.8 µM |
| Cc1ccc(NC(=O)/C(=C/c2cccc(Br)c2)NC(=O)c2ccco2)cc1 | 7.78% |  |
| O=C(Nc1ccc(-c2nc3ccccc3o2)cc1)C1CCCO1 (centres undefined) |  | active: 7.94 µM |
| CC(NC(=O)c1ccco1)C(c1cccs1)N1CCN(c2ccccc2F)CC1 (centres undefined) | -76.7% |  |
| O/N=C/c1ccc(OCc2ccccc2)c(Cl)c1 |  | active: 11.2 µM |
| COCCN(C(=O)c1ccc2ccccc2c1)c1c(N)n(Cc2ccccc2)c(=O)[nH]c1=O | -32.2% |  |
| CN(C(=O)CCN1C(=O)C(C)(C)Nc2ccccc21)c1ccccc1 | 35.6% |  |
| COc1cc(OC)nc(Oc2cc(/C=N/O)ccc2OC)n1 | -13.7% |  |
| CCN(CC)C(=O)CSc1nc2ccccc2c(=O)n1-c1cccc(OC)c1 | 36.6% |  |
| CC(c1ccco1)N(C(=O)c1ccccc1NS(=O)(=O)c1cc([N+](=O)[O-])ccc1Cl)c1ccccn1 (centres undefined) | -52.5% |  |
| CC1C/C(=C/c2ccncc2)C(=O)/C(=C/c2ccncc2)C1 (centres undefined) | -104% |  |
| CCc1nonc1NC(=O)c1oc2ccccc2c1C | 31.2% |  |
| c1ccc(-c2nnc(N3CCN(c4ccccn4)CC3)c3ccccc23)cc1 | -93.5% |  |
| COc1ccc(-c2cc(C(F)(F)F)nc(SCC(=O)Nc3cc(C)on3)n2)cc1 | 48.3% |  |
| CCNC(=O)N1CCNC(=O)C1CC(=O)OC (centres undefined) | 41.4% |  |
| C=CCc1cccc(/C=N/NC(=O)c2ccccc2OC)c1O | inactive: -102% |  |
| COC(=O)c1c(C)oc2ccc(N(C(=O)c3ccncc3)S(=O)(=O)c3ccc(C)cc3)cc12 | -64.1% |  |
| COc1ccc(Cn2nnnc2C(C(C)C)N2CCN(c3ccccc3OC)CC2)cc1 (centres undefined) | -50.8% |  |
| Cc1cc(C)c(NC(=O)Cc2ccc(-n3cccc3)cc2)c(C)c1 | 22.9% |  |

Arranged by molecular weight (largest number first): 3 of the compounds above

| SMILES | activity change, positive = activation | Potency |
| --- | --- | --- |
| CC(=O)NNc1ncnc2c1cnn2-c1ccc(C)cc1 | 37.6% |  |
| O/N=C/c1ccc(OCc2ccccc2)c(Cl)c1 |  | active: 11.2 µM |
| Cn1ncc(N=Cc2ccccc2)c1C(N)=O | 46.4% |  |

Carrying on:

| SMILES | activity change, positive = activation | Potency |
| --- | --- | --- |
| COc1cccc(C(=O)/C=C2\Sc3ccccc3N2C)c1 |  | active: 6.31 µM |
| Cc1sc(NC(=O)c2ccccc2)c(C(c2ccccn2)N2CCN(CCO)CC2)c1C (centres undefined) | -61.7% |  |
| O=C(CN1C(=O)COc2ccc(S(=O)(=O)N3CCOCC3)cc21)N1CCN(c2ccccc2)CC1 | 24.4% |  |
| O=C(NCc1ccncc1)c1ccc(N2CCCC2)c([N+](=O)[O-])c1 | -46.1% |  |
| O=S(=O)(c1cccc(-c2cn3cc(Cl)ccc3n2)c1)N1CCOCC1 | 38.9% |  |
| CN(C(=O)/C=C/c1ccccc1)C1CCS(=O)(=O)C1 (centres undefined) | 11.2% |  |
| CCOc1cc(/C=N/NC(=O)c2ccc(-c3csc(Nc4ccc(C)cc4)n3)cc2)ccc1OCC(=O)O |  | active: 12.6 µM |
| O=c1cc(-c2ccccc2)[nH]c2nc3ccccc3n12 |  | active: 3.98 µM |
| Cc1cc(C)n2c(Br)c(CSc3nc4ccccc4s3)nc2n1 |  | active: 11.2 µM |
| Cn1nnnc1Sc1c(Cl)cccc1[N+](=O)[O-] | -27.1% |  |
| O=C(CCl)Nc1ccc(Oc2cnc3ccccc3n2)cc1 | inactive: -73.6% |  |
| CCOC(=O)c1nn(-c2ccc3c(c2)CCN3C(C)=O)cc1O |  | active: 10 µM |
| CC(Oc1ccc(Cl)cc1Cl)c1nc(-c2ccc(NC(=O)c3ccncc3)cc2)no1 (centres undefined) | inactive: -70.7% |  |
| COCCCN(C(C)=O)c1nc(-c2ccccc2)cs1 | 90.3% |  |
| CCOC(=O)CSc1nnc(Cn2nnc(-c3ccccc3)n2)n1C | 61.2% |  |
| O=c1[nH]nc(Cc2ccccc2)c2ccccc12 | 37.6% |  |
| O=c1c(N2CCCCC2)coc2ccccc12 | 38% |  |
| Cc1cc(C(=O)COC(=O)c2n[nH]c3ccccc23)c(C)n1CC1CCCO1 (centres undefined) | inactive: -34.2% |  |
| NNC(=O)c1cnn(-c2ccccc2)c1-n1cccc1 | inactive: -51.7% |  |
| O=C1NN(c2ccccc2)C(=O)/C1=C/c1ccc(Sc2cccc3ccccc23)o1 | 30.7% |  |
| CC(C)(C)NC(=O)NC(=O)CSc1nnc(COc2ccccc2Cl)o1 | inactive: 13.5% |  |
| CCC(C)(C(=O)NC1CCCC1)N(C(=O)CNC(=O)c1ccccc1)c1c(C)n(C)n(-c2ccccc2)c1=O (centres undefined) | -30% |  |
| Cc1ccc(NC(=S)NNC(=O)c2ccco2)cc1 |  | active: 11.2 µM |
| COc1ccc(NC(=O)C2CCC(CNc3c(N4CCC(C)CC4)c(=O)c3=O)CC2)cc1OC (centres undefined) | 35.4% |  |
| Cc1ccc(N(Cc2ccco2)C(=O)c2cccc(S(=O)(=O)N(C)C)c2)cc1 | 34.8% |  |
| Cc1ccc(/C=C/C(=O)Nc2ccc(Oc3ccccc3)cc2)o1 | inactive: -46.6% |  |
| COc1ccc(-c2cc(=Nc3ccc(C(=O)O)cc3)c3cc(C)ccc3o2)cc1 |  | active: 17.8 µM |
